{"source": "the supplement of paper PMC10973195", "note": "± gives the standard deviation of the averaged measurements. This is one part of the list. These are raw signals, not scaled to a control.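 A neuron, microglia and astrocyte co-culture models inflammatory neurodegeneration: bacterial LPS drives microglia-dependent neuron loss. Each compound was tested against DMSO vehicle wells on the same plates; BAY61-3606, a SYK inhibitor, was the reference neuroprotective control.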", "data": [{"tested_on": "rat primary cerebellar neuron-glia coculture", "assay": "necrotic cell count (DRAQ7+) per image field (cells per field); higher = more necrosis", "conditions": "LPS 0 ng/mL; 1 µM; treatment time 3 days", "method": "(§1)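 Primary rat (P3-7) cerebellar neuron-glia cocultures in 384-well plates were treated at DIV7 with 1 uM compound, then with or without 100 ng/mL LPS 30 min later, for 3 days. At DIV10 live cells were stained with Hoechst 33342, NeuO (live neurons), IB4-AF594 (microglia) and DRAQ7 (necrotic cells) and imaged at 10x (4 fields per well, IN Cell Analyzer 6000). Cells were classified with Cellpose/CellProfiler plus a Random Trees classifier. Values are per-well mean counts per image field (raw, not min-max normalised) and the median microglial FormFactor per image. Three technical replicates per repeat across 4 biological repeats; DMSO and BAY61-3606 serve as controls.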", "values": [{"smiles": "O=[N+]([O-])/N=C1\\NCCN1Cc1ccc(Cl)nc1", "necrotic cell count": "90.7 ± 47"}, {"smiles": "CCNC(=O)C[C@@H]1N=C(c2ccc(Cl)cc2)c2cc(OC)ccc2-n2c(C)nnc21", "necrotic cell count": "422 ± 65"}, {"smiles": "O=C(c1ccccc1)C(F)(F)F", "necrotic cell count": "81.8 ± 28"}, {"smiles": "O=C(O[C@H]1C[N+]2(CCCOc3ccccc3)CCC1CC2)C(O)(c1cccs1)c1cccs1", "necrotic cell count": "83.7 ± 22"}, {"smiles": "Cc1cccc(NC(=O)N[C@@H]2N=C(c3ccccc3)c3ccccc3N(C)C2=O)c1", "necrotic cell count": "73.7 ± 23"}, {"smiles": "O=C1NC(=O)N(c2cccc3ccccc23)C(=O)/C1=C\\c1c[nH]c2ccccc12", "necrotic cell count": "56.9 ± 21"}, {"smiles": "C[C@@H]1CN([C@H]2CC[C@](C#N)(c3ccc(F)cc3)CC2)CC[C@]1(C(=O)O)c1ccccc1", "necrotic cell count": "79.6 ± 26"}, {"smiles": "C[N+]1(C)[C@@H]2C[C@@H](OC(=O)[C@H](CO)c3ccccc3)C[C@H]1[C@@H]1O[C@@H]12", "necrotic cell count": "78.5 ± 28"}, {"smiles": "c1ccc(CCCN2CCN(CCOC(c3ccccc3)c3ccccc3)CC2)cc1", "necrotic cell count": "76.5 ± 37"}, {"smiles": "C=CCN(CC=C)CCc1c[nH]c2ccc(OC)cc12", "necrotic cell count": "81.3 ± 35"}, {"smiles": "Clc1ccc2c(c1Cl)CNCC2", "necrotic cell count": "86.8 ± 42"}, {"smiles": "OC1(c2ccc(Cl)cc2)c2ccccc2C2=NCCN21", "note": "(stereo not given)", "necrotic cell count": "76.7 ± 42"}, {"smiles": "CN(C)C(=O)Oc1ccc2cc(Br)ccc2c1Br", "necrotic cell count": "85.9 ± 33"}, {"smiles": "CN/C(=N\\S(=O)(=O)c1ccc(Cl)cc1)N1CC(c2ccccc2)C(c2ccc(Cl)cc2)=N1", "note": "(stereo not given)", "necrotic cell count": "78.8 ± 24"}, {"smiles": "N#Cc1nn(-c2c(Cl)cc(C(F)(F)F)cc2Cl)c(N)c1[S+]([O-])C(F)(F)F", "note": "(stereo not given)", "necrotic cell count": "61.2 ± 35"}, {"smiles": "O=C(NC1CN2CCC1CC2)c1cc(Br)cc2nc[nH]c12", "note": "(stereo not given)", "necrotic cell count": "76.4 ± 35"}, {"smiles": "NCCc1cc(I)c(Oc2ccc(O)c(I)c2)c(I)c1", "necrotic cell count": "102 ± 37"}, {"smiles": "O=C1CCCC2[C@H]3CNC[C@H](C3)CN12", "note": "(stereo not given in full)", "necrotic cell count": "86.8 ± 37"}, {"smiles": "CCOc1ccccc1N1CCN(Cc2cccc3ccccc23)CC1", "necrotic cell count": "82.4 ± 36"}, {"smiles": "C[C@]12CC[C@H](O)C[C@H]1CC[C@@H]1[C@@H]2CC[C@]2(C)[C@@H](C3=CC(=O)OC3)CC[C@]12O", "necrotic cell count": "76.8 ± 29"}]}, {"tested_on": "rat primary cerebellar neuron-glia coculture", "assay": "necrotic cell count (DRAQ7+) per image field (cells per field); higher = more necrosis", "conditions": "LPS 100 ng/mL; 1 µM; treatment time 3 days", "method": "as §1", "values": [{"smiles": "O=[N+]([O-])/N=C1\\NCCN1Cc1ccc(Cl)nc1", "necrotic cell count": "828 ± 240"}, {"smiles": "CCNC(=O)C[C@@H]1N=C(c2ccc(Cl)cc2)c2cc(OC)ccc2-n2c(C)nnc21", "necrotic cell count": "1680 ± 470"}, {"smiles": "O=C(c1ccccc1)C(F)(F)F", "necrotic cell count": "968 ± 310"}, {"smiles": "O=C(O[C@H]1C[N+]2(CCCOc3ccccc3)CCC1CC2)C(O)(c1cccs1)c1cccs1", "necrotic cell count": "992 ± 280"}, {"smiles": "Cc1cccc(NC(=O)N[C@@H]2N=C(c3ccccc3)c3ccccc3N(C)C2=O)c1", "necrotic cell count": "1050 ± 250"}, {"smiles": "O=C1NC(=O)N(c2cccc3ccccc23)C(=O)/C1=C\\c1c[nH]c2ccccc12", "necrotic cell count": "884 ± 170"}, {"smiles": "C[C@@H]1CN([C@H]2CC[C@](C#N)(c3ccc(F)cc3)CC2)CC[C@]1(C(=O)O)c1ccccc1", "necrotic cell count": "894 ± 240"}, {"smiles": "C[N+]1(C)[C@@H]2C[C@@H](OC(=O)[C@H](CO)c3ccccc3)C[C@H]1[C@@H]1O[C@@H]12", "necrotic cell count": "1100 ± 330"}, {"smiles": "c1ccc(CCCN2CCN(CCOC(c3ccccc3)c3ccccc3)CC2)cc1", "necrotic cell count": "916 ± 180"}, {"smiles": "C=CCN(CC=C)CCc1c[nH]c2ccc(OC)cc12", "necrotic cell count": "955 ± 300"}, {"smiles": "Clc1ccc2c(c1Cl)CNCC2", "necrotic cell count": "848 ± 310"}, {"smiles": "OC1(c2ccc(Cl)cc2)c2ccccc2C2=NCCN21", "note": "(stereo not given)", "necrotic cell count": "624 ± 510"}, {"smiles": "CN(C)C(=O)Oc1ccc2cc(Br)ccc2c1Br", "necrotic cell count": "985 ± 240"}, {"smiles": "CN/C(=N\\S(=O)(=O)c1ccc(Cl)cc1)N1CC(c2ccccc2)C(c2ccc(Cl)cc2)=N1", "note": "(stereo not given)", "necrotic cell count": "952 ± 400"}, {"smiles": "N#Cc1nn(-c2c(Cl)cc(C(F)(F)F)cc2Cl)c(N)c1[S+]([O-])C(F)(F)F", "note": "(stereo not given)", "necrotic cell count": "932 ± 430"}, {"smiles": "O=C(NC1CN2CCC1CC2)c1cc(Br)cc2nc[nH]c12", "note": "(stereo not given)", "necrotic cell count": "1040 ± 460"}, {"smiles": "NCCc1cc(I)c(Oc2ccc(O)c(I)c2)c(I)c1", "necrotic cell count": "949 ± 300"}, {"smiles": "O=C1CCCC2[C@H]3CNC[C@H](C3)CN12", "note": "(stereo not given in full)", "necrotic cell count": "890 ± 420"}, {"smiles": "CCOc1ccccc1N1CCN(Cc2cccc3ccccc23)CC1", "necrotic cell count": "868 ± 330"}, {"smiles": "C[C@]12CC[C@H](O)C[C@H]1CC[C@@H]1[C@@H]2CC[C@]2(C)[C@@H](C3=CC(=O)OC3)CC[C@]12O", "necrotic cell count": "984 ± 300"}]}]}
